Data: patent US20080254024A1 (Genentech, published 2008)
Results are given in words; binding and its absence hold for the method and conditions named. Some results given as binding are weak or reduced against the parent protein; the word gives no strength. For some assays here: Where a sequence is shown, tags or fusion partners need not be part of it.

Key:
[1] = target: T1, mouse EphB2 polypeptide (mouse) (UniProt P54763); experiment: direct ELISA on coated EphB2
T1 sequence (looked up): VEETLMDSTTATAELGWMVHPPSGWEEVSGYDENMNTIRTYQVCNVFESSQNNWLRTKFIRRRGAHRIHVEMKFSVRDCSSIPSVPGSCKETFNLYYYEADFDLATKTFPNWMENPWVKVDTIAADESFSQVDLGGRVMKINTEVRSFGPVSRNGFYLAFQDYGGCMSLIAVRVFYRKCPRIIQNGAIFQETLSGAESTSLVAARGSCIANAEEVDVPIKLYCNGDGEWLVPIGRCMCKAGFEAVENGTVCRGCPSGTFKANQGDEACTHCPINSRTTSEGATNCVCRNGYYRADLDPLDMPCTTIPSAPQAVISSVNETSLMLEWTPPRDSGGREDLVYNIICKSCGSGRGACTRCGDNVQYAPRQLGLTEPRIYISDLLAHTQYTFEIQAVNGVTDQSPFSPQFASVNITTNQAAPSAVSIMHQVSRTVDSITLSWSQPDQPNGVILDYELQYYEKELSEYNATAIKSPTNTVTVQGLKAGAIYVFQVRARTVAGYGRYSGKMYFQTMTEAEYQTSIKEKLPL

[2] = target: T2, polyhis-tagged human EphB2 (baculovirus-derived His8-tagged EphB2 receptor) (human) (UniProt P29323); experiment: direct ELISA on coated EphB2
T2 sequence (looked up): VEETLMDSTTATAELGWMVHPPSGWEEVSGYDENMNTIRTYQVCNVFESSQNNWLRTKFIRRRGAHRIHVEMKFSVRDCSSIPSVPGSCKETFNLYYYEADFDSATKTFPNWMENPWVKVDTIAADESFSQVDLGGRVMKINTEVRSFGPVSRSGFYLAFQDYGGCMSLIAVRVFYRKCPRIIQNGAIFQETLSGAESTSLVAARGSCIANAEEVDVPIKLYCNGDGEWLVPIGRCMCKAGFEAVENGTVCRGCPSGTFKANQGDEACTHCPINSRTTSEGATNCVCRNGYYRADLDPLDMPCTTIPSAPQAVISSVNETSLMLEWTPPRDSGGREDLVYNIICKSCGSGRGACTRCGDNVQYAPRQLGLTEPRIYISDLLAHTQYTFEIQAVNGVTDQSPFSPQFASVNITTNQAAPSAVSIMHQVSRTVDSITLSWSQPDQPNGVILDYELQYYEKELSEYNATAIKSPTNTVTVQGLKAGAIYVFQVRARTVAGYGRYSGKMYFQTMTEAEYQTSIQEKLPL

[3] = target: T3, EphB2 ligand binding domain construct ss.EphB2LBD.gD.GPI (amino acids 19 to 208 of human EphB2) on transiently transfected 293 cells (human) (UniProt P29323); experiment: FACS on ss.EphB2LBD.gD.GPI-293 cells
T3 sequence (chain, COOH-terminal GPI linker): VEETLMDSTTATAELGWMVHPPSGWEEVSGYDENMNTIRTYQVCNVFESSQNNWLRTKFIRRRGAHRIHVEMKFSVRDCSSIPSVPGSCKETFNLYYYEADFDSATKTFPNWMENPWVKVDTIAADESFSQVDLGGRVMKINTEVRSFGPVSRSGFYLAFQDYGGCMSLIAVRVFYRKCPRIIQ

[4] = target: endogenous human EphB2 on cells or tissue (HT1080-GD vector control cells, colorectal cancer cell lines, colon adenocarcinoma sections) (human) (UniProt P29323); experiment: flow cytometry on HT1080-GD cells
[5] = target: NH2-terminal GD epitope-tagged human EphB2 overexpressed on cells (HT1080-EphB2, SVT2-EphB2) (human) (UniProt P29323); experiment: flow cytometry on HT1080-EphB2 cells
[6] = target: T3, EphB2 ligand binding domain construct ss.EphB2LBD.gD.GPI (amino acids 19 to 208 of human EphB2) on transiently transfected 293 cells (human); experiment: FACS on ss.EphB2LBD.gD.GPI-293 cells, Mab 2H9 at 1 µg/ml
[7] = target: NH2-terminal GD epitope-tagged human EphB2 overexpressed on cells (HT1080-EphB2, SVT2-EphB2) (human) (UniProt P29323); experiment: immunofluorescence and 125I-antibody uptake on HT1080-EphB2 cells
[8] = target: endogenous human EphB2 on cells or tissue (HT1080-GD vector control cells, colorectal cancer cell lines, colon adenocarcinoma sections) (human) (UniProt P29323); experiment: immunohistochemistry on frozen human colon adenocarcinoma sections
[9] = target: endogenous human EphB2 on cells or tissue (HT1080-GD vector control cells, colorectal cancer cell lines, colon adenocarcinoma sections) (human) (UniProt P29323); experiment: reactivity against colorectal cancer cell lines that endogenously express EphB2
[10] = target: NH2-terminal GD epitope-tagged human EphB2 overexpressed on cells (HT1080-EphB2, SVT2-EphB2) (human) (UniProt P29323); experiment: reactivity against cell lines engineered to overexpress the receptor (HT-1080EphB2 and SVT2EphB2)
[11] = target: endogenous human EphB2 on cells or tissue (HT1080-GD vector control cells, colorectal cancer cell lines, colon adenocarcinoma sections) (human) (UniProt P29323); experiment: saturation binding on HT1080-GD cells, HRP-conjugated secondary antibody, absorbance at 450 nm
[12] = target: NH2-terminal GD epitope-tagged human EphB2 overexpressed on cells (HT1080-EphB2, SVT2-EphB2) (human) (UniProt P29323); experiment: saturation binding on HT1080-EphB2 cells, HRP-conjugated secondary antibody, absorbance at 450 nm
[13] = target: NH2-terminal GD epitope-tagged human EphB2 overexpressed on cells (HT1080-EphB2, SVT2-EphB2) (human) (UniProt P29323); experiment: flow cytometry competition on HT1080 cells overexpressing EphB2; blocked ligand Fc-EphrinB1, detected with FITC-anti-huFc; incubations on ice
[14] = target: NH2-terminal GD epitope-tagged human EphB2 overexpressed on cells (HT1080-EphB2, SVT2-EphB2) (human) (UniProt P29323); experiment: immunofluorescence of HT1080-EphB2 cells incubated with MAb 2H9 on ice, kept on ice or shifted to 37°C for 1 h, fixed and stained with secondary antibody

binding [1]: binds | binding [2]: binds | binding [3]: binds | binding [4]: binds | binding [5]: binds | binding [6]: binds | binding [7]: binds | binding [8]: binds | binding [9]: binds | binding [10]: binds | binding [11]: binds | binding [12]: binds | binding [13]: binds | binding [14]: binds
B1: anti-EphB2 monoclonal antibody produced by hybridoma cell line 2H9.11.14 (ATCC PTA-6606) (antibody, IgG1, V domains shown)
VH: QVQLQQSGAELAKPGASVKMSCKASGYTFTSYWMHWVKQRPGQGLEWIGFINPSTGYTDYNQKFKDKATLTVKSSNTAYMQLSRLTSEDSAVYYCTRRLKLLRYAMDYWGQGTTLTVSA
VL: DIVMTQSPSSLSVSAGEKVTMNCKSSQSLLNSGNQENYLAWYQQKPGQPPKLLIYGASTRESGVPDRFTGSGSGTDFTLTISSVQAEDLAVYYCQNDHSYPFTFGAGTKVEIKR
notes: 125I-labelled in the Scatchard and uptake assays; also called Mab 2H9; MAb 2H9
